Source: PMC8242032, “Non-canonical function of DGCR8 in DNA double-strand break repair signaling and tumor radioresistance” (Nature Communications, 2021)

By UniProt entry, the sequences of proteins in these tests, tags left out.
UniProt Q9UNE7: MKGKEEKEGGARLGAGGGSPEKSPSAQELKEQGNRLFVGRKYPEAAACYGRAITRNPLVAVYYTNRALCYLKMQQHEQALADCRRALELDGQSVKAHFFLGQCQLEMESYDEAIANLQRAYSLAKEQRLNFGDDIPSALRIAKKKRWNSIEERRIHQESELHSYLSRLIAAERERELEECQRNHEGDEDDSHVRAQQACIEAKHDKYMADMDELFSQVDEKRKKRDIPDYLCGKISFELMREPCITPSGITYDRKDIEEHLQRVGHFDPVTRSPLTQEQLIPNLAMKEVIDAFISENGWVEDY
UniProt Q7Z6Z7: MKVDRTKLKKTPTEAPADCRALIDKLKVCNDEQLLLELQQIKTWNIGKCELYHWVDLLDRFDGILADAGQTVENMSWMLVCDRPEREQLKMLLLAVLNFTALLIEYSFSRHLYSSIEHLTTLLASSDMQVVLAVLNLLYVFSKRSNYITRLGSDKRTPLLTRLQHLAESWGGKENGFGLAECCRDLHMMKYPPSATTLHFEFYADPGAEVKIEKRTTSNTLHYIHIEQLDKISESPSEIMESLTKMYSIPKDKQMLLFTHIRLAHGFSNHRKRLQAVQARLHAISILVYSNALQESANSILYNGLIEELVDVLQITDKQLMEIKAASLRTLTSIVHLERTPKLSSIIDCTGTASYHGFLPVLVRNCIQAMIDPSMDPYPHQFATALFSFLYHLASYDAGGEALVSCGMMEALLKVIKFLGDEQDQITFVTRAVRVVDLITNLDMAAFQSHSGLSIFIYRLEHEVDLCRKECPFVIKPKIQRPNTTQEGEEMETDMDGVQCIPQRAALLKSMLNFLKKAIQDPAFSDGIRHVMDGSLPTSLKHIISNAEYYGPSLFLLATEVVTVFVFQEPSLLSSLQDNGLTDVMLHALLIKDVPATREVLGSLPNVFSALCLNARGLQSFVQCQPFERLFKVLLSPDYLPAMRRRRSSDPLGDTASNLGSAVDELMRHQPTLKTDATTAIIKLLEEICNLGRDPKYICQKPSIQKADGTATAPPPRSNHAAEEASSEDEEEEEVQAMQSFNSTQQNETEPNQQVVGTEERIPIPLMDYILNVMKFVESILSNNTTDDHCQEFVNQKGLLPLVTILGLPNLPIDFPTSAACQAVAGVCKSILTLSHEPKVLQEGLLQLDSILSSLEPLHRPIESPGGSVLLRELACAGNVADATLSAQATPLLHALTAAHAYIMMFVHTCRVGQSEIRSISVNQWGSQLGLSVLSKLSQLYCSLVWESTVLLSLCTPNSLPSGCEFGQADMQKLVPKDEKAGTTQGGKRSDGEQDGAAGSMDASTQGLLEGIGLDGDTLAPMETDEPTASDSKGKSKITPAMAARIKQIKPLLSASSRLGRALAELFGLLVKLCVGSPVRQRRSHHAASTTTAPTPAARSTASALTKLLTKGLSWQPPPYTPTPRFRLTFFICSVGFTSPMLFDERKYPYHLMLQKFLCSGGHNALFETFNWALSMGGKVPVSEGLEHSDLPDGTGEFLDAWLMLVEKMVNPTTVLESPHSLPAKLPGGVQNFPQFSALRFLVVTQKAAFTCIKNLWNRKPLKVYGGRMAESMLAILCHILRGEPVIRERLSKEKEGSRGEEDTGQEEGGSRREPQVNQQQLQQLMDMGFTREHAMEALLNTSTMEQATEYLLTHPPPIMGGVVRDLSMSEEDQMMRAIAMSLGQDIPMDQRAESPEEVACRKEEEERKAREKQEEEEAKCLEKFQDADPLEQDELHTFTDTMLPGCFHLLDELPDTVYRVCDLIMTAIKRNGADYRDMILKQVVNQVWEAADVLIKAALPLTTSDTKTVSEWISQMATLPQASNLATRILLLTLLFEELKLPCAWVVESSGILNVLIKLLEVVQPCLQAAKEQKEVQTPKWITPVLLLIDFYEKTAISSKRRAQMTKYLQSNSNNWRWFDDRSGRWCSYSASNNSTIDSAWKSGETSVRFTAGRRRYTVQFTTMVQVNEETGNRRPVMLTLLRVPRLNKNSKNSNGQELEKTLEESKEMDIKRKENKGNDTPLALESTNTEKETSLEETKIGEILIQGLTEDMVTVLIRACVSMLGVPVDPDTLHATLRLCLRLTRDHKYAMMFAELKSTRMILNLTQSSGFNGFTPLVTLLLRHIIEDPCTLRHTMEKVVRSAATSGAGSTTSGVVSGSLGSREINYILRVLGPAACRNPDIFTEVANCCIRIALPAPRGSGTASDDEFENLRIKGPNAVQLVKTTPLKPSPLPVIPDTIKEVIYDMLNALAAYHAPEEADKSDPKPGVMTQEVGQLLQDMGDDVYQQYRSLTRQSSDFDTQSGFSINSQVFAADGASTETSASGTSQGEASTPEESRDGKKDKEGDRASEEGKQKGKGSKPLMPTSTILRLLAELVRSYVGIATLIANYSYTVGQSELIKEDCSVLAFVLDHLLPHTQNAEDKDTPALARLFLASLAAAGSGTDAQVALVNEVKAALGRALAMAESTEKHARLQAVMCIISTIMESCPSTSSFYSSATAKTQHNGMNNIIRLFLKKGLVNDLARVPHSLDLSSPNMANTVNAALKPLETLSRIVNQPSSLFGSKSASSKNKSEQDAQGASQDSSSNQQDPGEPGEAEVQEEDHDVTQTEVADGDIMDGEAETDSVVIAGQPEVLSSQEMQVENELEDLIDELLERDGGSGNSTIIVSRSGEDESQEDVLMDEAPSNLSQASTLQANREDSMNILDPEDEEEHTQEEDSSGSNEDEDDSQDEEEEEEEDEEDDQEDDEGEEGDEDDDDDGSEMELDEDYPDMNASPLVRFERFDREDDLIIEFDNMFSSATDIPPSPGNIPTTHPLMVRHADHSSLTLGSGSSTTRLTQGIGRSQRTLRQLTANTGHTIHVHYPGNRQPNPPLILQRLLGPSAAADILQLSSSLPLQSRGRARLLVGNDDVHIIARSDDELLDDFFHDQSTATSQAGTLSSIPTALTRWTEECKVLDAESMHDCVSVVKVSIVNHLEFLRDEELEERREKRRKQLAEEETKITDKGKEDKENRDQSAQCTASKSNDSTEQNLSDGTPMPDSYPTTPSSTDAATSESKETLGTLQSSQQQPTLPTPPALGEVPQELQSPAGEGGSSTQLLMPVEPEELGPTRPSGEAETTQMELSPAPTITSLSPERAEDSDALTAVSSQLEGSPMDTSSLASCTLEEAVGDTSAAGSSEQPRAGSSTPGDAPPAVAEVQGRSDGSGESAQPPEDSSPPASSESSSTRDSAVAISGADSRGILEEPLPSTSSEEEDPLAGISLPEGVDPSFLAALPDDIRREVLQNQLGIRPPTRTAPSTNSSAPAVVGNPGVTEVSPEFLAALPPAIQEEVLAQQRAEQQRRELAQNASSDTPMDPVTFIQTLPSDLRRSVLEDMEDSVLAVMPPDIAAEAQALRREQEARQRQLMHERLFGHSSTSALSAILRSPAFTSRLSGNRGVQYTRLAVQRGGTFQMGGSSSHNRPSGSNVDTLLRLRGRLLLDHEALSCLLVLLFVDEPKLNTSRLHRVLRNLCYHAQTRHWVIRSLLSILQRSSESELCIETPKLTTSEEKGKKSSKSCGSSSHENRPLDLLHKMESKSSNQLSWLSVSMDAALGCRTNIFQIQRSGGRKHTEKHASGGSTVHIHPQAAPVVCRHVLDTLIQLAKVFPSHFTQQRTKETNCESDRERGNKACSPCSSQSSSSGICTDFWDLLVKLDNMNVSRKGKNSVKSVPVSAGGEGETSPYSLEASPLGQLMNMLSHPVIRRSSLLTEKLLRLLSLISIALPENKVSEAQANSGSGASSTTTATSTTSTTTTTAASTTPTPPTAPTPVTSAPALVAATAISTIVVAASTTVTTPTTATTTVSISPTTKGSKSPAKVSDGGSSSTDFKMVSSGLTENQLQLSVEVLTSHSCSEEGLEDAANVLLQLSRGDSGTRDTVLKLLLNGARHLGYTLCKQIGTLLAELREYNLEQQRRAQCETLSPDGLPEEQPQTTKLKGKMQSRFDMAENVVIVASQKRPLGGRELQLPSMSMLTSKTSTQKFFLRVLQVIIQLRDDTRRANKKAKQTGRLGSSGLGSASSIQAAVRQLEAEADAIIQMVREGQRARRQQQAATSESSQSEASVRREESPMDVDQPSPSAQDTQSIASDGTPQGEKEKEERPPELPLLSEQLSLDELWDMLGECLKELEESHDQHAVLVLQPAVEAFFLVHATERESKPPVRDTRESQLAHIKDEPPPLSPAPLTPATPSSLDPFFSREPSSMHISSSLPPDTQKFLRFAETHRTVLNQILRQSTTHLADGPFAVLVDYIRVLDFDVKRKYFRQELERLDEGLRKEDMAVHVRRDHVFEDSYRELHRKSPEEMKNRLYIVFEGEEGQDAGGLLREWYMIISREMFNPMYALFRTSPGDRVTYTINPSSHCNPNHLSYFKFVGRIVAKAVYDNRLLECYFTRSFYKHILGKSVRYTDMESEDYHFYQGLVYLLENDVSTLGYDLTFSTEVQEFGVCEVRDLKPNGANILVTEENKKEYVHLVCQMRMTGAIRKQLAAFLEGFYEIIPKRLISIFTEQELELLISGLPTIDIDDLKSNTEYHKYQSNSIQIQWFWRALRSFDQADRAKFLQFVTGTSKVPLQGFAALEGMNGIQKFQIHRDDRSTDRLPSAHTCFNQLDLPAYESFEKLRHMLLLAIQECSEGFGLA
UniProt Q8IYW5: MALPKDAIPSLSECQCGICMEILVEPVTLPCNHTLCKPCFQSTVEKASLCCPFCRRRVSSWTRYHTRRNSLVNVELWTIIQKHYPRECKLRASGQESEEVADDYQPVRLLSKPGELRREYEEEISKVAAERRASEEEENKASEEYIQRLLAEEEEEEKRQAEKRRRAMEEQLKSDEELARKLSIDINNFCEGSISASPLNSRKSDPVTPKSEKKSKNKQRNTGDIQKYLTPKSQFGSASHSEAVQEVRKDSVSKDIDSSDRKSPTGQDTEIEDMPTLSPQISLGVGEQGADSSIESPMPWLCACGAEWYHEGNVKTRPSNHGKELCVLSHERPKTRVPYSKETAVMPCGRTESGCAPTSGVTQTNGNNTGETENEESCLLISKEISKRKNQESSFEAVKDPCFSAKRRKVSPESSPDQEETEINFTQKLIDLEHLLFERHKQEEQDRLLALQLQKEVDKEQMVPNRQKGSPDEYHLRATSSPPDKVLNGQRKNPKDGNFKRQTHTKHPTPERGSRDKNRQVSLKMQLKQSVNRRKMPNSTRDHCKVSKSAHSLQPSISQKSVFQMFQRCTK

B1: RNF8 (endogenous) (enzyme, UniProt O76064 1-485)
chain: MGEPGFFVTGDRAGGRSWCLRRVGMSAGWLLLEDGCEVTVGRGFGVTYQLVSKICPLMISRNHCVLKQNPEGQWTIMDNKSLNGVWLNRARLEPLRVYSIHQGDYIQLGVPLENKENAEYEYEVTEEDWETIYPCLSPKNDQMIEKNKELRTKRKFSLDELAGPGAEGPSNLKSKINKVSCESGQPVKSQGKGEVASTPSDNLDPKLTALEPSKTTGAPIYPGFPKVTEVHHEQKASNSSASQRSLQMFKVTMSRILRLKIQMQEKHEAVMNVKKQTQKGNSKKVVQMEQELQDLQSQLCAEQAQQQARVEQLEKTFQEEEQHLQGLEIAQGEKDLKQQLAQALQEHWALMEELNRSKKDFEAIIQAKNKELEQTKEEKEKMQAQKEEVLSHMNDVLENELQCIICSEYFIEAVTLNCAHSFCSYCINEWMKRKIECPICRKDIKSKTYSLVLDNCINKMVNNLSSEVKERRIVLIRERKAKRLF
B2: ZFP91 (enzyme, UniProt Q96JP5 1-570)
chain: MPGETEEPRPPEQQDQEGGEAAKAAPEEPQQRPPEAVAAAPAGTTSSRVLRGGRDRGRAAAAAAAAAVSRRRKAEYPRRRRSSPSARPPDVPGQQPQAAKSPSPVQGKKSPRLLCIEKVTTDKDPKEEKEEEDDSALPQEVSIAASRPSRGWRSSRTSVSRHRDTENTRSSRSKTGSLQLICKSEPNTDQLDYDVGEEHQSPGGISSEEEEEEEEEMLISEEEIPFKDDPRDETYKPHLERETPKPRRKSGKVKEEKEKKEIKVEVEVEVKEEENEIREDEEPPRKRGRRRKDDKSPRLPKRRKKPPIQYVRCEMEGCGTVLAHPRYLQHHIKYQHLLKKKYVCPHPSCGRLFRLQKQLLRHAKHHTDQRDYICEYCARAFKSSHNLAVHRMIHTGEKPLQCEICGFTCRQKASLNWHMKKHDADSFYQFSCNICGKKFEKKDSVVAHKAKSHPEVLIAEALAANAGALITSTDILGTNPESLTQPSDGQGLPLLPEPLGNSTSGECLLLEAEGMSKSYCSGTERVSLMADGKIFVGSGSSGGTEGLVMNSDILGATTEVLIEDSDSAGP
B3: ZNF598 (enzyme, UniProt Q86UK7 1-904)
chain: MAAAGGAEGRRAALEAAAAAAPERGGGSCVLCCGDLEATALGRCDHPVCYRCSTKMRVLCEQRYCAVCREELRQVVFGKKLPAFATIPIHQLQHEKKYDIYFADGKVYALYRQLLQHECPRCPELPPFSLFGDLEQHMRRQHELFCCRLCLQHLQIFTYERKWYSRKDLARHRMQGDPDDTSHRGHPLCKFCDERYLDNDELLKHLRRDHYFCHFCDSDGAQDYYSDYAYLREHFREKHFLCEEGRCSTEQFTHAFRTEIDLKAHRTACHSRSRAEARQNRHIDLQFSYAPRHSRRNEGVVGGEDYEEVDRYSRQGRVARAGTRGAQQSRRGSWRYKREEEDREVAAAVRASVAAQQQEEARRSEDQEEGGRPKKEEAAARGPEDPRGPRRSPRTQGEGPGPKETSTNGPVSQEAFSVTGPAAPGCVGVPGALPPPSPKLKDEDFPSLSASTSSSCSTAATPGPVGLALPYAIPARGRSAFQEEDFPALVSSVPKPGTAPTSLVSAWNSSSSSKKVAQPPLSAQATGSGQPTRKAGKGSRGGRKGGPPFTQEEEEDGGPALQELLSTRPTGSVSSTLGLASIQPSKVGKKKKVGSEKPGTTLPQPPPATCPPGALQAPEAPASRAEGPVAVVVNGHTEGPAPARSAPKEPPGLPRPLGSFPCPTPQEDFPALGGPCPPRMPPPPGFSAVVLLKGTPPPPPPGLVPPISKPPPGFSGLLPSPHPACVPSPATTTTTKAPRLLPAPRAYLVPENFRERNLQLIQSIRDFLQSDEARFSEFKSHSGEFRQGLISAAQYYKSCRDLLGENFQKVFNELLVLLPDTAKQQELLSAHTDFCNREKPLSTKSKKNKKSAWQATTQQAGLDCRVCPTCQQVLAHGDASSHQALHAARDDDFPSLQAIARIIT

Molecular target: T1, SFB-DGCR8 (triple epitope: S-protein, FLAG tag and streptavidin-binding peptide-tagged DGCR8) (human) (UniProt Q8WYQ5)
T1 sequence: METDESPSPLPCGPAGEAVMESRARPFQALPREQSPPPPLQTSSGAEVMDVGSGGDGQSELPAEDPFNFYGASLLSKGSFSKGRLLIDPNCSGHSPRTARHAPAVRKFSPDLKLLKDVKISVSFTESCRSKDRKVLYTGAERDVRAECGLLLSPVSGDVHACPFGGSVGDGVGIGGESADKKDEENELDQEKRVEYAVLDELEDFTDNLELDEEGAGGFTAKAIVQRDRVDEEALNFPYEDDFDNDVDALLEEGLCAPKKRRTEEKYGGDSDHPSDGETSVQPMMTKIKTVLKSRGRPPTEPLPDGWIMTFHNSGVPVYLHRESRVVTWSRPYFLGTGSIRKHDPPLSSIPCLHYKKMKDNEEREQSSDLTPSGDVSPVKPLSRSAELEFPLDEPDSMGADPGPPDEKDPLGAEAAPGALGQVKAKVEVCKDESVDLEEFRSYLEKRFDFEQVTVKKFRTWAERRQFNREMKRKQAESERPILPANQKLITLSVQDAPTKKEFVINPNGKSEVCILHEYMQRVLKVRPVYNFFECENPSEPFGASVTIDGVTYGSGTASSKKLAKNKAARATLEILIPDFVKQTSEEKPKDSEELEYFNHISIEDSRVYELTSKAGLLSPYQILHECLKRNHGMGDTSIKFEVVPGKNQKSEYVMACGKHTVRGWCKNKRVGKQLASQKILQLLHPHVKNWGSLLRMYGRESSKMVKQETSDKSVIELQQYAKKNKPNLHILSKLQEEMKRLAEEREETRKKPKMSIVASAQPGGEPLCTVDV
Assay: affinity purification with mass spectrometry; SFB-DGCR8 transfected into LM2 cells, with or without 8 Gy X-rays followed by 1 h; tandem purification on streptavidin-sepharose beads then S-protein agarose beads, NETN buffer, 4 °C

| Molecule | binding |
| --- | --- |
| CHIP (from UniProt Q9UNE7 1-303) (enzyme) | binds |
| HUWE1 (from UniProt Q7Z6Z7 1-4374) (enzyme) | binds |
| MDC1 (endogenous) (from UniProt Q14676 1-2089) | binds |
| RBBP6 (from UniProt Q7Z6E9 1-1792) (enzyme) | binds |
| RNF168 (endogenous) (from UniProt Q8IYW5 1-571) (enzyme) | binds |
| B1 | binds |
| B2 | binds |
| B3 | binds |

Molecular target: T1, SFB-DGCR8 (triple epitope: S-protein, FLAG tag and streptavidin-binding peptide-tagged DGCR8) (human)
Assay: affinity purification with mass spectrometry; as a1, the non-irradiated LM2 cells only

| Molecule | binding |
| --- | --- |
| MDC1 (endogenous) (from UniProt Q14676 1-2089) | no binding (only non-irradiated cells) |
| B1 | no binding (only non-irradiated cells) |

These are yes or no findings as the source states them, for the method shown. In cells and extracts the contact can be indirect. Here binding means that the protein was enriched with, or labelled near, the bait; the list need not be complete. For some of these results: No binding means not detected with the bait. Where a sequence is shown, tags or fusion partners need not be part of it.
